## Screening data, single-dose tests

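Whole-cell growth test on Mycobacterium tuberculosis, read after 4 days in a medium based on cholesterol and the lipid DPPC; the read-out is not stated. Concentration: 50 µM. Direction is inferred from retests: higher values go with more growth inhibition. Size under these conditions: about 69,000 compounds, about 370 of them at 50% or above in at least one test.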

Results are given as percent effect. How 0% and 100% were set is not recorded. Most values in the screen are low, and negative values occur. Compounds were drawn at random from those tested, without regard to their results. Two or more numbers in one place are separate tests of the same structure; such repeats can differ widely.

Result for O=C(O)C(F)(F)F.[H][C@@]12CCN(c3ncccn3)[C@@]1([H])CCN2S(=O)(=O)c1cccc(F)c1 was 6.737%. O=C(O)C(F)(F)F.[H][C@@]12CCCO[C@]1([H])[C@H](NS(C)(=O)=O)CN(Cc1c(C)noc1C)C2 read -4.846%. For Cc1noc(CCCNC(=O)CNC(=O)c2cc3ccccc3[nH]2)n1 the result was -2.436%. With Cc1cnn(CC2CCCN2Cc2coc(-c3cccc(F)c3)n2)c1 (stereo not given) the screen gave -12.45%. CCN1CCCC1CN(Cc1ccon1)CC1CCN(CCOC)CC1 (stereo not given) gave -9.989%. Result for O=C1NC2(CCNCC2)CC1c1cccnc1 (stereo not given) was -18%. With Cc1cc(CNC(=O)CC2CN(C(=O)OC(C)(C)C)C2)ccc1F the screen gave 7.534%. Result for CC(NC(=O)CCCOc1cccc(F)c1)c1ccncc1 (stereo not given) was -8.037% and 2.036%.

With Cc1cc2n(n1)CC(CNC1CCN(c3ccc(F)cc3)CC1)CN2 (stereo not given) the screen gave -5.123%. Result for CCn1c(N)nc2cc(C(=O)N3CC(c4ccccn4)C3)cnc21 was -12.82%. For Cc1cnccc1NCCNC1CCN(CC(C)C)CC1 the result was 9.768%. Cc1cc(CN(C)C(=O)NC2CCCN(c3ncccn3)C2)no1 (stereo not given) read -2.951%. Result for CN1CCN(C[C@@H]2CN(Cc3c(Cl)cncc3Cl)C[C@@H]2CO)CC1 was 0.2175% and -11.93%. CC(C)(C)n1ncc2c1NC(=O)CC2c1ccc(OCC(N)=O)cc1 (stereo not given) read -2.398%. For CCCNC(=O)c1ccc(-c2ccco2)[nH]c1=O the result was 9.498%. CCn1nc(C)c(CN(CCOC)C(=O)c2cnc(C)nc2O)c1C read 1.281% and -9.792%.

Result for COC(=O)c1ccc(S(=O)(=O)NC2CNC(=O)C2)cc1 (stereo not given) was 14.91%. CC(=O)N1CCCn2nc(CNC(=O)N3CCCCC3)cc2C1 read -25.37%. With CC(=O)NCCNC(=O)NCC1Cc2ccccc2O1 (stereo not given) the screen gave 5.84% and 0.4126%. O=C(O)C(=O)O.c1csc(CN2CC(c3nc(-c4cnccn4)no3)C2)c1 read 11.81%. For CSCc1cccc(S(=O)(=O)N2CCCC2)c1 the result was -8.524%. With CC(C)=CCn1ncc(N2CCCCC2)cc1=O the screen gave -8.724%. Cc1nccn1CCC1CCN(c2ccncn2)CC1 gave 6.409%. CN(C(=O)c1ccc[nH]1)C1CC(=O)N(Cc2ccccc2)C1=O (stereo not given) gave -9.917% and -0.09074%.

Result for COc1ccc(NC(C)=O)cc1OCc1cccnc1 was -31.93%. Result for CC(C)COC(C)C(=O)N1CCCCC1 (stereo not given) was -8.837%. Cn1cc(CN(C(=O)C2COc3ccccc3C2)C2CC2)cn1 (stereo not given) gave 6.466%. With CCOCC(=O)N1CCC(CSCc2ccco2)CC1 the screen gave 14.61%. With CC[C@@H]1C[C@H](C(F)(F)F)n2nc(C3CCN(S(=O)(=O)CC)CC3)cc2N1 the screen gave -13.53%. CCn1cc(NC(=O)C2CCN(CC(=O)N3CCOCC3)CC2)cn1 gave -10.45%. Result for Cn1cnc2c1CCN(Cc1nc(-c3ccsc3)no1)C2 was -12.36%. CC1=Nc2c(c(=O)[nH]n2C(C)C)C(c2cccs2)S1 (stereo not given) read 9.752%.

Result for O=C(O)C(F)(F)F.[H][C@@]12CN(Cc3csnn3)C[C@]1([H])OCCN2c1cnccn1 was -20.01%. Result for CN(Cc1cccnc1)CC1(O)CCCN(CC(C)(C)C)C1=O (stereo not given) was 9.329%. CC(C)c1nnc2sc(CC3CN(C(C)C)CCO3)nn12 (stereo not given) read -23%. For Cc1cccc(CC(=O)NCCCOC(C)C)c1 the result was -22.7%. For Cc1cccc(NC(=O)NCCCn2nc3ccccn3c2=O)c1C the result was -0.7311%. With CCn1c(NCC2CCCO2)nc2c(C)nn(C)c2c1=O (stereo not given) the screen gave 13.51%. With Cc1ccc(Oc2ncccc2C(=O)O)c(C)c1 the screen gave -4.801%. With COC(=O)c1ccc(CNC2CC(=O)N(Cc3cccc(F)c3)C2)cc1 (stereo not given) the screen gave 4.088%.

For Cc1n[nH]c(C)c1C1COCCN1C(=O)c1cc(F)ccc1F (stereo not given) the result was -3.193%. CN(C)C(=O)CCC(=O)N1CCC2(CC1)COC2 gave -19.33%.

Some entries from above, unchanged:

compound	percent effect
O=C(O)C(F)(F)F.[H][C@@]12CCCO[C@]1([H])[C@H](NS(C)(=O)=O)CN(Cc1c(C)noc1C)C2	-4.846
CC1=Nc2c(c(=O)[nH]n2C(C)C)C(c2cccs2)S1 (stereo not given)	9.752
O=C(O)C(F)(F)F.[H][C@@]12CN(Cc3csnn3)C[C@]1([H])OCCN2c1cnccn1	-20.01

Source: ChEMBL document CHEMBL3988442, “University of Dundee, Small-Polar-MMV Screening Library” (2021).